Values of other authors in patent US9006285B2, “Therapeutic agent for hepatitis C” (Mochida Pharmaceutical Co., Ltd., priority 2008, dated 2015).
At least one structure is not confirmed: it was looked up by name or label, or the drawing left a doubt.

System: HCV replication in Ava5 cells
Conditions: cited from earlier work

**Q.** For `CC/C=C\C/C=C\C/C=C\C/C=C\C/C=C\C/C=C\CCC(=O)O` [DHA, docosahexaenoic acid], which HCV replication is on record?
**A.** inhibited HCV replication
